Assay results: the supplement of paper PMC3334620
The full ranking holds about 33,000 sequences; the median of “E-score (-0.5 to 0.5)” is about -8e-05, and the highest 2% start at about 0.23. The list shows a part of the results.

target: T1, Nrg2 (UniProt P38082); assay: PBM E-score (8-mer binding enrichment) (E-score (-0.5 to 0.5)); higher = stronger / more preferred TF binding; settings: protein concentration: 100 nM; construct: GST-full length
T1 sequence: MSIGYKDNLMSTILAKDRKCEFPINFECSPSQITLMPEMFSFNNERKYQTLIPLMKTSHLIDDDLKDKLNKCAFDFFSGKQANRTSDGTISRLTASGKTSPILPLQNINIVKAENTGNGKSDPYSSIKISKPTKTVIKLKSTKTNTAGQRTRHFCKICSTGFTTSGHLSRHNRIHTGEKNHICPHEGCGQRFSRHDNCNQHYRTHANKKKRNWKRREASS
Description: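 Universal 'all 10-mer' protein binding microarrays (Agilent AMADID 015681) probed with GST-tagged S. cerevisiae TFs (full-length or DBD) made by in vitro transcription/translation (PURExpress), about 100-200 nM. Bound TF was detected with fluorescent anti-GST. Each ungapped 8-mer (which stands for itself and its reverse complement) is scored by the PBM enrichment score (E-score), a modified Wilcoxon-Mann-Whitney statistic from -0.5 to +0.5, computed with the Universal PBM Analysis Suite. Scale: above 0.35 generally sequence-specific binding.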

Sequence	PBM E-score
ACAACTCT	-0.0855
AGGTACCA	-0.134
AGATCAAC	0.07
ATGTTGCG	0.0425
CATACTAG	0.248
ATCTAAGC	-0.155
CCTGTATC	0.233
ATCCAACA	0.0668
GCCGAGTA	0.01
CCGAAGCG	0.0231
AAGGGAAA	0.0416
ACGAGGCC	-0.258
ACTTCCAC	0.0979
GCTTTCAC	-0.025
ATGGTGTG	-0.0259
AACGGGGG	-0.261
GCGAATTA	0.279
AGAGAGAC	-0.0758
GACGTGGA	0.0691
AAGTAGCC	0.0239
AACATTTC	-0.0715
GAGCTTGC	-0.151
ACAATTGG	-0.0401
CCGACTCC	-0.151
GGTAATCA	0.0349

Sequence	PBM E-score
CTTGCGTC	-0.00183
TAAAAGGA	0.02
AGTTTACA	-0.0687
ATGTGAAT	0.00585
AGCTACAG	-0.111
AAATCCAT	0.266
CCAAGCGC	0.0215
CCTCCTTC	-0.204
AAAGAAGC	-0.0222
ATACGGAT	0.0807
ATCCGGCG	-0.0654
ACAGCGCA	0.00939
GGACTGCC	-0.142
ATTAGCAC	0.0689
CCGACCGA	0.0178
GAGCCGCA	-0.0775
CTACCCCC	-0.363
AGGTACCG	0.00854
CGAATTGC	0.136
GGACTATA	-0.0144
GAATCTGC	-0.00561
TCGCGGAA	-0.0788
CCACCGGC	-0.168
CATCGCCG	0.0333
ACCCCTTC	0.0339

Sequence	PBM E-score
GCGACACC	-0.211
GATTTTGC	0.00819
CGTCTTTA	0.0637
CCCTTGCC	0.00144
ATTCTTAA	-0.0433
CCGGGAAC	-0.00517
CAGCACTC	-0.0539
ATCGGGTC	0.0497
GCGAGAGA	-0.111
ATGTGGTA	-0.0155
CGTTAGAG	-0.176
GAGGACAC	0.0844
ACCTCCAC	-0.142
ACTGATCT	0.0144
GCGGCAAC	0.0029
ACATGCGA	-0.0276
GCTATCCA	-0.0732
TCGTCAGA	-0.0913
GGCGAGGA	-0.125
GAGTTATA	0.0355
AGGATAGG	-0.0826
CCCTTTTA	-0.0772
CGGACTAG	-0.192
GCCATACC	-0.233
ATCGATTC	0.057

Sequence	PBM E-score
GGGCTGAA	0.00873
CGTTGCCA	-0.00214
CACACACG	0.0787
AGAGATAA	0.0742
AACGCAGA	-0.0108
AGTTTTTC	0.00734
CGTGGACC	-0.0333
ATCGGCTG	-0.0969
GTGTCCCA	-0.0622
AGGTCGAG	-0.0366
CAGCGAAC	0.105
GGAGGCAA	-0.141
GCGCAATA	0.0287
AGAAGGGC	-0.0501
GGCACATA	0.0571
ATCAGGGG	0.0494
GTAATATA	0.215
AACCTTCT	-0.064
CGGGCACG	-0.145
ACTGGGCA	-0.123
ACGTCGCA	0.141
GTATGCTA	0.0199
CACCACAA	0.0543
CCGCTAGG	-0.166
ACAAACCT	0.166

Sequence	PBM E-score
AATTTCAA	-0.0693
GTAAGAAC	0.0463
CTCGTAAC	0.132
TATCACGA	0.059
ATATAAGG	0.125
CCATCAGG	-0.115
CGGACACC	-0.192
TAGTCTGA	-0.039
GGGCGTTA	0.0526
GTCCGACA	0.0602
AGCGGAGC	-0.151
CATCGGGA	0.0829
GGCAAATA	0.0445
ACACCGAC	-0.151
ATGATTTA	0.192
GTCCCATA	0.0319
CAGGAGGG	-0.178
CCGCCGCA	0.0152
CGTCCACA	-0.0475
CCCGGATA	-0.0367
CTCTCATC	-0.142
CGGATCAA	0.148
AAGATGTA	0.147
CTCCGAGC	0.034
CATAATTA	0.173

Sequence	PBM E-score
ACCCTAAT	0.088
ACGGGTTC	0.0363
GGCTCTAC	-0.22
TAAGACAA	0.0513
CTTCCCAC	-0.139
GCAACCAA	0.129
TCAACGCA	0.108
GACCCTCC	0.16
ATCGACGG	0.0727
AGAACTAA	0.134
GGAACACC	0.0203
GACGGTGA	-0.105
CCATTCGA	-0.0491
CGTAGAGC	0.0117
CGTCTCCC	-0.141
AACACGCA	0.115
AGTACAAT	0.206
GCATGCGC	0.0537
AGACTTGA	-0.278
CATGCCCC	-0.0492
TGTTGGAA	0.0563
GGCTCAAC	-0.135
CATATCTA	0.209
TGTGCAAA	-0.15
CGTCTTAC	-0.102

Sequence	PBM E-score
CCCTTACG	-0.128
CCGAAATC	0.18
AGCGGGTA	0.0348
AGACGCAA	0.162
CGGGCGAG	0.0918
ATCGCCTG	-0.0827
AAATAACG	0.134
GCAGAGGC	-0.249
GGGCAGAA	0.226
GGATTCTA	-0.0214
GGATGTAA	0.128
ATTGAGAC	0.0341
CACTTTAG	-0.0797
ATCTGTTC	0.039
CTCGTAGC	0.0145
ATATTTGC	0.195
AGCAGATC	0.0779
ATCGCAGG	0.103
GAGCGTGC	0.036
GCCAGCAC	-0.0402
GTTAGGAA	-0.0262
TCGACGAA	0.0248
CGCACCCG	-0.00584
TCCGGAAA	0.0528
CACATGAG	-0.167

Sequence	PBM E-score
ATGCCCGC	-0.0168
ACTTAAAC	0.0859
TAGACGCA	-0.106
CGAGCGCA	0.165
CAACTACC	-0.0263
AGCGAGGA	0.00657
CCGGGCGC	-0.18
CATACGGA	0.0838
CATGAAAG	0.133
AGGGCAAA	0.131
ATGTGTTC	0.21
GCGCAAAC	0.211
GCTGCAAC	-0.0525
CCGGGCGA	-0.0266
AAGCAGGG	0.0257
GCATAATA	0.201
AGGACGGA	-0.14
AGCGTCGC	-0.0577
AAACCGAG	0.0125
ATGACACG	-0.0225
AAACTGTA	0.0982
GGTGGGGA	0.265
ACAATTTG	-0.11
AAACGGCG	0.221
CACTAAAC	0.0415

Sequence	PBM E-score
AGTGTAAT	0.0182
CCACGAGG	0.199
AAATATAA	0.161
CTGTCCAC	-0.0896
ACTACAGC	-0.271
ACGATGGA	0.0577
AAGTAGGC	0.0743
AGATGCCG	-0.00454
AGGGGATG	0.0874
ATTGATGA	0.149
CGGAACCA	0.294
CGGCCCAA	-0.0584
TTAGTAAA	0.169
ACCGCGAG	-0.0245
GACTAGCC	-0.271
TCTATAAA	-0.0201
CCCATGCA	0.066
ACAACTAT	0.105
CATCTTAC	-0.00815
AGCATAGG	-0.111
ACACTAGA	0.126
CGGATATC	0.125
ATAGTCGA	0.264
TACTTTAA	0.0217
ACAAGGGG	-0.0483

Sequence	PBM E-score
TTCACGAA	-0.0665
ATGGCTTA	-0.0228
ACCTATCG	0.15
GGCCGATA	-0.00019
ATCAAGAT	-0.0138
AGGGCTTC	-0.00488
GCCATTAC	0.0813
CCAATATA	-0.18
CATTCCGG	-0.00765
CAGGCCCC	-0.152
GCTATAGC	-0.378
CCCCAGTC	-0.207
CAGCAATA	0.0267
AAGCTAGG	0.0218
GCCCTTTA	-0.0329
GCTTGTTA	0.0654
ACCACCAT	5e-05
AATAAGCT	0.0272
GATTTAAA	-0.0907
CGTCTTGC	0.0795
TCGGGAGA	-0.148
AATCTTCT	-0.0104
AGAATCCG	0.0839
CGACTAGC	-0.0669
ATGCCCCA	-0.0566

Sequence	PBM E-score
AGACACGG	0.0453
CTGTCTTA	0.0262
CAAGGAGG	-0.0206
GGCACCCC	-0.139
AGCCGAGA	-0.0537
AACAGAGC	-0.0666
CTGCGAAG	-0.281
ATAGACGC	0.178
CCGCTGCA	-0.0301
ATCAGGAA	0.13
CTGTGACA	-0.062
AACATCTG	-0.161
CAACAACC	0.0175
CGAGCCAC	-0.236
CCTCTGAC	0.0885
CTAAGTTA	0.00065
AAGATCAT	0.0116
TCCTCAGA	-0.099
CGCGCAAG	0.109
ACATTTTG	0.0538
ACAGAAGA	0.129
GTACGCTA	-0.0055
ACCCACAT	0.0315
CCACAAAG	0.0649
CCGAATAA	0.14

Given with bars between the fields: part of the list above.
Sequence | PBM E-score
CGCACCCG | -0.00584
TCCGGAAA | 0.0528
CACATGAG | -0.167
ATGCCCGC | -0.0168
ACTTAAAC | 0.0859
TAGACGCA | -0.106
CGAGCGCA | 0.165
CAACTACC | -0.0263
AGCGAGGA | 0.00657
CCGGGCGC | -0.18
CATACGGA | 0.0838
CATGAAAG | 0.133
AGGGCAAA | 0.131
ATGTGTTC | 0.21
GCGCAAAC | 0.211
GCTGCAAC | -0.0525
CCGGGCGA | -0.0266
AAGCAGGG | 0.0257
GCATAATA | 0.201
AGGACGGA | -0.14
AGCGTCGC | -0.0577
AAACCGAG | 0.0125
ATGACACG | -0.0225
AAACTGTA | 0.0982
GGTGGGGA | 0.265
ACAATTTG | -0.11
AAACGGCG | 0.221
CACTAAAC | 0.0415
AGTGTAAT | 0.0182
CCACGAGG | 0.199
AAATATAA | 0.161
CTGTCCAC | -0.0896
ACTACAGC | -0.271
ACGATGGA | 0.0577
AAGTAGGC | 0.0743
AGATGCCG | -0.00454
AGGGGATG | 0.0874
ATTGATGA | 0.149
CGGAACCA | 0.294
CGGCCCAA | -0.0584
TTAGTAAA | 0.169
ACCGCGAG | -0.0245
GACTAGCC | -0.271
TCTATAAA | -0.0201
CCCATGCA | 0.066
ACAACTAT | 0.105
CATCTTAC | -0.00815
AGCATAGG | -0.111
ACACTAGA | 0.126
CGGATATC | 0.125
ATAGTCGA | 0.264
TACTTTAA | 0.0217
ACAAGGGG | -0.0483
TTCACGAA | -0.0665
ATGGCTTA | -0.0228
ACCTATCG | 0.15
GGCCGATA | -0.00019
ATCAAGAT | -0.0138
AGGGCTTC | -0.00488
GCCATTAC | 0.0813
CCAATATA | -0.18
CATTCCGG | -0.00765
CAGGCCCC | -0.152
GCTATAGC | -0.378
CCCCAGTC | -0.207
CAGCAATA | 0.0267
AAGCTAGG | 0.0218
GCCCTTTA | -0.0329
GCTTGTTA | 0.0654
ACCACCAT | 5e-05
AATAAGCT | 0.0272
GATTTAAA | -0.0907

Remaining list, next part.

Sequence	PBM E-score
ACGGTGTG	-0.1
CTGGGGAA	-0.113
AGAACCTC	-0.232
TAATTGTA	0.0762
CCGTAGCG	-0.176
ATCATCAC	-0.0296
ACTTCGCA	-0.0648
ACACCGTA	-0.0345
CAGGTAGC	-0.212
CCTCATCC	-0.204
CTACGGGC	-0.37
TCAAGTGA	-0.047
TGGGAAAA	0.0454
CAATGCGC	0.145
TCTCAGAA	-0.0951
AATATTGA	0.211
AAGCATTA	-0.0307
GACGTGCA	0.0768
CCCTACCC	0.00619
AATATTCG	0.177
AGGCCTCG	-0.235
AGATGACT	-0.0996
GCAAACGC	-0.00138
AAAAGAGG	-0.0519
CGACGCCG	-0.136

Sequence	PBM E-score
GAATTCGC	0.141
ATGCTCCA	0.0544
AAGGACGA	-0.0591
CAATCTCG	-0.0255
GACGTATC	-0.118
AGGTATAC	0.0544
ACCGGGCC	-0.0405
ACCGACAC	-0.0406
GCTTTGAC	-0.0203
TAGTAGGA	-0.042
TCCAACAA	-0.0146
ACTAACAA	0.098
CTCCATTA	-0.0503
CGTGCCAG	-0.201
AAGGTGAT	-0.0594
AGGCAGCA	0.192
CCTTAGAC	-0.209
ACCACAAA	0.0888
CCGACGAC	0.00776
AATATAAT	0.0957
ATCGTCCC	0.206
GTTGCCGA	-0.0807
AAGCGTCG	0.0195
GACCGAGA	0.169
AACCTCGC	0.142

Sequence	PBM E-score
CCCTCCAG	-0.101
TAACTTGA	-0.0171
GCCATCAA	-0.0366
CGTCTTCC	-0.14
CCTACGCA	-0.133
AGCCTACT	0.0296
AGTCGCTC	-0.0509
ATCTGAAC	-0.0161
ACTTCTGG	-0.18
CAGCATTC	0.00122
CATGACAC	0.164
CGATGCTA	0.0333
CAGGGTGA	-0.117
CGTGCGCA	0.049
CCCTAAGC	-0.161
CCAACATA	0.207
CAAGTCTG	-0.308
CTCTCATA	0.12
GTTCGGTA	0.0513
